In PMC5706891:
No constants are given. Whether binding was seen depends on the method and setting. In cells and extracts the contact can be indirect. These calls come from enrichment with a bait or labelling near it, and not all partners need be listed. Sequences can lack the tags named with a protein.

By UniProt entry, the sequences of proteins in these tests, tags left out.
UniProt P09874: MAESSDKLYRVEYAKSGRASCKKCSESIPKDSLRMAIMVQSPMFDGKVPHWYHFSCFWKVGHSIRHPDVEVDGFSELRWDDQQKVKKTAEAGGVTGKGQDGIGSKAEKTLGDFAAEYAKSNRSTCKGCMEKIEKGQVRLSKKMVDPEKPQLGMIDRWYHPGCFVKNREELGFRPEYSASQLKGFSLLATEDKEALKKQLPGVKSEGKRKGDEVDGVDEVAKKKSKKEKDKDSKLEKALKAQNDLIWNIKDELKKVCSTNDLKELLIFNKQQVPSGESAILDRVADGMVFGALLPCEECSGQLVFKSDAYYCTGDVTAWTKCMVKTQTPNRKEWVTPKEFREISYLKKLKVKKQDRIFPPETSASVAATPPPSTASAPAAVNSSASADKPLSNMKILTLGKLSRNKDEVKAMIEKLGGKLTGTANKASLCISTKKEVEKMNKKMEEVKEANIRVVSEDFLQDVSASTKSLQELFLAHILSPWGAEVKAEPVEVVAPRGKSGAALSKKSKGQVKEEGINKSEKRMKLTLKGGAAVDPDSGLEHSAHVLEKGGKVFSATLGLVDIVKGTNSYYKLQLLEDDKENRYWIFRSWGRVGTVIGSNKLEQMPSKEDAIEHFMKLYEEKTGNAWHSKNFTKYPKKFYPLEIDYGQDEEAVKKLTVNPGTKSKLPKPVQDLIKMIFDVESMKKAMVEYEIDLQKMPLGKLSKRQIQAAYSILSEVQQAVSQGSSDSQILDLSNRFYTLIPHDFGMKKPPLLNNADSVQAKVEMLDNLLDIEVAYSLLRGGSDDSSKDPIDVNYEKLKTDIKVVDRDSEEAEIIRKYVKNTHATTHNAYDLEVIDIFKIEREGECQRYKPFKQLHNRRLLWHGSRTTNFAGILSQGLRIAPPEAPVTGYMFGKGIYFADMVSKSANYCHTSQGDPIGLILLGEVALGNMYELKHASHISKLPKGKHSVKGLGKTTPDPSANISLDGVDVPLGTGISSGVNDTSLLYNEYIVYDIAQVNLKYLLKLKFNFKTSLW

Target: T1, Flag-RNF144A (ring finger protein 144A) (human) (UniProt P50876)
T1 sequence: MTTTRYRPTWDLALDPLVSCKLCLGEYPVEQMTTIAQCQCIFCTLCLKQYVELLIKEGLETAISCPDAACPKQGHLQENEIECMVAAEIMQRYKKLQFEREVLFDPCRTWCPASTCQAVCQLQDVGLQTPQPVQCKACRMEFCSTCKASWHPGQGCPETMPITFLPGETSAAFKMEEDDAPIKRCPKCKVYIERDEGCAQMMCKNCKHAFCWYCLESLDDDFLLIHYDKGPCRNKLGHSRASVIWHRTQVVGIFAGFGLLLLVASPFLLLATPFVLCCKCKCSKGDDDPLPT
Experiment: affinity purification with mass spectrometry; lysates of HEK293T cells stably expressing Flag-RNF144A or empty vector pCDH, IP with anti-Flag antibody conjugated agarose beads, SDS-PAGE, LC-MS/MS

## Poly(ADP-ribose) polymerase 1 (PARP1), endogenous (from UniProt P09874 1-1014)
  binding: binds
